The values below come from the supplement of paper PMC10849652.

Chains of the proteins cited; added tags and fusions are not shown. Lines headed by an entry give the natural chain unless they say otherwise; changes in a name come on top.
UniProt Q9NVW2: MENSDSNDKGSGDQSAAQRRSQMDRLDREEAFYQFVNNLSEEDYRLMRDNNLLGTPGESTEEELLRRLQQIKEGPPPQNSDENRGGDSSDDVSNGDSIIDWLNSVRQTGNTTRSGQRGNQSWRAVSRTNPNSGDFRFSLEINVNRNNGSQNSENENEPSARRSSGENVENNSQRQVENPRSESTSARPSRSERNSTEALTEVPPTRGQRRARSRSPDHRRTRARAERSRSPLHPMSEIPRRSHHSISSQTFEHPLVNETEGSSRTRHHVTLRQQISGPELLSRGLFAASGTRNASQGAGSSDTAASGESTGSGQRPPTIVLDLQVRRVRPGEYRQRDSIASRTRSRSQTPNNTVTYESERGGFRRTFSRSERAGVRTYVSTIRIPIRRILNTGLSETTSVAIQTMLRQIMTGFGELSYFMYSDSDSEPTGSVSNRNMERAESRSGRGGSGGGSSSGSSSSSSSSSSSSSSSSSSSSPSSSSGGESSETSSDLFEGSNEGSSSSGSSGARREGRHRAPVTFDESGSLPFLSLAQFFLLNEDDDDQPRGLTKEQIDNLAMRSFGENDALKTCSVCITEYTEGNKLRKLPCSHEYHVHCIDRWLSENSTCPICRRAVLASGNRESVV
UniProt O43566: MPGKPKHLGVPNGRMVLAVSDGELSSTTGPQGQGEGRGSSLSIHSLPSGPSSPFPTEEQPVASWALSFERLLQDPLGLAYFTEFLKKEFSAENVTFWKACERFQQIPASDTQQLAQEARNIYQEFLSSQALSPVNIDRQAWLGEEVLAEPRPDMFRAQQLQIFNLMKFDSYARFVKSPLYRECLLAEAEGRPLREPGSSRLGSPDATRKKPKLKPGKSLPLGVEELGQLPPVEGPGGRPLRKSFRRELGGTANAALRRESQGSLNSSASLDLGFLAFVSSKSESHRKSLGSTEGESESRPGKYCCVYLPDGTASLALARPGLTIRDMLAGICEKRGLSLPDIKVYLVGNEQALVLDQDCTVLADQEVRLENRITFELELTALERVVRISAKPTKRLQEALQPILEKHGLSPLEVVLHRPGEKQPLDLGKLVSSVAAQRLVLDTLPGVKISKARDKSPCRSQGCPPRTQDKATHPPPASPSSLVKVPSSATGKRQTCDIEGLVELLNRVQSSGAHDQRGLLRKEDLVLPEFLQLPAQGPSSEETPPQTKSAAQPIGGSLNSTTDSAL
UniProt Q96GF1: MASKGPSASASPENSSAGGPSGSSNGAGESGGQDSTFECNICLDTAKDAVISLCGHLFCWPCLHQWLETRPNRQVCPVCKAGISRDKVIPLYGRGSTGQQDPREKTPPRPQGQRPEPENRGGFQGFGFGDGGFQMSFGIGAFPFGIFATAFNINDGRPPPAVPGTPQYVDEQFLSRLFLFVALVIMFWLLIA
UniProt Q9Y580: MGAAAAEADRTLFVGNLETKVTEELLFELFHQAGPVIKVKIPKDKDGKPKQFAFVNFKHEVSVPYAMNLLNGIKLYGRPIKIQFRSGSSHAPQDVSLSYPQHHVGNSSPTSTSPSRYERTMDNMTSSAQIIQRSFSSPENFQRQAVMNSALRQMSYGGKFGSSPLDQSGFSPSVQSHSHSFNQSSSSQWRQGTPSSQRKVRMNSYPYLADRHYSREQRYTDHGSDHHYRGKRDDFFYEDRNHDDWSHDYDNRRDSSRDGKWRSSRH
UniProt Q96LZ7: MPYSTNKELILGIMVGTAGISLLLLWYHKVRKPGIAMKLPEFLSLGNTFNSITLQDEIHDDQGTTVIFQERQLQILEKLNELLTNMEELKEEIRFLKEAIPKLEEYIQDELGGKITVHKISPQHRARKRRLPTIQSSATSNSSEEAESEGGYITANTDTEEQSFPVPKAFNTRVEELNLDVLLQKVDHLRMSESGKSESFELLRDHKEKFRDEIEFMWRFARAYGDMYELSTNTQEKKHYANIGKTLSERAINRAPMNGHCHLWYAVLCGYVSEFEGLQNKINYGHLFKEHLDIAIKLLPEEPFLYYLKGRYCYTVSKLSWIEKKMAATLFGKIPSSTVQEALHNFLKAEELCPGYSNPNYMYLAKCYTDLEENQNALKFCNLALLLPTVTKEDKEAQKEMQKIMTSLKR
UniProt Q9P260: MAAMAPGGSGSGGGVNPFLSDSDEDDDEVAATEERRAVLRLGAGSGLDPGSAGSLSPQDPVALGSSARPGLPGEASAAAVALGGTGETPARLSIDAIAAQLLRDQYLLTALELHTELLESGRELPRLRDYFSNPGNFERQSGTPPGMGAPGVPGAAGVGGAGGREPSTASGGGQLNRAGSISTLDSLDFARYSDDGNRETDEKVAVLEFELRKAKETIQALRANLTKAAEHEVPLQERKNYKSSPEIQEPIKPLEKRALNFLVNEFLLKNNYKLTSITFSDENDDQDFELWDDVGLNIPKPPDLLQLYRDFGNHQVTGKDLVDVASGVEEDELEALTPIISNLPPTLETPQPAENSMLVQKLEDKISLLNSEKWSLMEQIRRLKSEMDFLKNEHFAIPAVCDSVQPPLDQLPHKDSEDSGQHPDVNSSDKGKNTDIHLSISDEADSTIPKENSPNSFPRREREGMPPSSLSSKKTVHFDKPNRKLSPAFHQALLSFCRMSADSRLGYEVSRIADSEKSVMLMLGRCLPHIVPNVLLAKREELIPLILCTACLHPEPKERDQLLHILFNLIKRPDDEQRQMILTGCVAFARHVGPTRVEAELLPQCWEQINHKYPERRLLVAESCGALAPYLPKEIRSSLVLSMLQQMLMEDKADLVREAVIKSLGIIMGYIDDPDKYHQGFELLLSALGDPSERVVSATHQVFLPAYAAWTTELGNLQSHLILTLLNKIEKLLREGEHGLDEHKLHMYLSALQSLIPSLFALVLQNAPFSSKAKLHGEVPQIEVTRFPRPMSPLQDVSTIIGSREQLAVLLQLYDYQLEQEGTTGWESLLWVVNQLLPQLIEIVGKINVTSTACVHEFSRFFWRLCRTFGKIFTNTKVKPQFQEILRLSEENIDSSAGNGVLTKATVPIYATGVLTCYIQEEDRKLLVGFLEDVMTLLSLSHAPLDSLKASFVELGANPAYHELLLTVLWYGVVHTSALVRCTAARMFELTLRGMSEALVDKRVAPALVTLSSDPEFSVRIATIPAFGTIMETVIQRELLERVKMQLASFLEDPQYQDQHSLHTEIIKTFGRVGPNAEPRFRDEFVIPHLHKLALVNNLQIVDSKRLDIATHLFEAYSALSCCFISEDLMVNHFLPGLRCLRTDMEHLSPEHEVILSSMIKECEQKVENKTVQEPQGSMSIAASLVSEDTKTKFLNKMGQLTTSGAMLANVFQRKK
UniProt Q6PCD5: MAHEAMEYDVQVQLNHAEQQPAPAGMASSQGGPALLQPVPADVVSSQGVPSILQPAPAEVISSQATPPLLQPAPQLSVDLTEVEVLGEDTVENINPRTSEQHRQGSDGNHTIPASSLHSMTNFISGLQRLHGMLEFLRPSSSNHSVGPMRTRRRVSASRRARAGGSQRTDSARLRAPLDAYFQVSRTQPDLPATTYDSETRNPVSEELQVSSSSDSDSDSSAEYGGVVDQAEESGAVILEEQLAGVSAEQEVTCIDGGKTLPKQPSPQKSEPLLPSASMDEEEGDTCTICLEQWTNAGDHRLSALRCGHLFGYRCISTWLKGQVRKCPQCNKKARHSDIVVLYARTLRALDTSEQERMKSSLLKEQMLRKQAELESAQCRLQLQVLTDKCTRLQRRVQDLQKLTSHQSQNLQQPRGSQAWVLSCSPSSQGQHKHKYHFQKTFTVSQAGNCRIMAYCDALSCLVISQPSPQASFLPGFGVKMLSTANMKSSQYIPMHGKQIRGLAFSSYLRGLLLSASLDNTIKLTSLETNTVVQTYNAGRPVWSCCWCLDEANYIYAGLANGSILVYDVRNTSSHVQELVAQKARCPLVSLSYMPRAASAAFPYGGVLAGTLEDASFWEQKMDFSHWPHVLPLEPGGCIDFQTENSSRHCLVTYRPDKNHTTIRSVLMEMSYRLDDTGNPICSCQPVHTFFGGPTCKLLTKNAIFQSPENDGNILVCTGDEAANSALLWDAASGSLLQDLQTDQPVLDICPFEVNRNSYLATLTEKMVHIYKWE
UniProt Q96E14: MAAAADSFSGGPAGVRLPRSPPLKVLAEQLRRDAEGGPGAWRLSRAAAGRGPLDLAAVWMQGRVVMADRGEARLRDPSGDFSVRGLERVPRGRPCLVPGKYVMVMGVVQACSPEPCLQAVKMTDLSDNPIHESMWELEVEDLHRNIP
UniProt Q5EBL4: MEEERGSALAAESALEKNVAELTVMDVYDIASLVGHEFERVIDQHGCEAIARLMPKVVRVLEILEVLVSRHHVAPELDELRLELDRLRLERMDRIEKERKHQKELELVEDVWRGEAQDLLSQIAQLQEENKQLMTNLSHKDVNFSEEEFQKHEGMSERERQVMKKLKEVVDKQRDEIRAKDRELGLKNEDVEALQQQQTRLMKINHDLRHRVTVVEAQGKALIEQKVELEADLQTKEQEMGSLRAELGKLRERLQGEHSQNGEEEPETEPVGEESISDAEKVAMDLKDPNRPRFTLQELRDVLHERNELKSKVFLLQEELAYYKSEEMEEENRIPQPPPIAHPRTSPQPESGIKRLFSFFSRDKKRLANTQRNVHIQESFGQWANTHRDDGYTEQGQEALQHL
UniProt Q9Y256: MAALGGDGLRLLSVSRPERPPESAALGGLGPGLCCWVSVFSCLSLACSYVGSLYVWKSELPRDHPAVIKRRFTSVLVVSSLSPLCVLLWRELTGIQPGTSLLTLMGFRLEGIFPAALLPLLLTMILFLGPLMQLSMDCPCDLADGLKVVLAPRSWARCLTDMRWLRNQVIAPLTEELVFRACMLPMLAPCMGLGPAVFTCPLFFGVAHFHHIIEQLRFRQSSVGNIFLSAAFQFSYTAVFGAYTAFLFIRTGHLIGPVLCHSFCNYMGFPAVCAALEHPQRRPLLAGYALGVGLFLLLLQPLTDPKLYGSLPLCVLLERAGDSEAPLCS
UniProt Q92546: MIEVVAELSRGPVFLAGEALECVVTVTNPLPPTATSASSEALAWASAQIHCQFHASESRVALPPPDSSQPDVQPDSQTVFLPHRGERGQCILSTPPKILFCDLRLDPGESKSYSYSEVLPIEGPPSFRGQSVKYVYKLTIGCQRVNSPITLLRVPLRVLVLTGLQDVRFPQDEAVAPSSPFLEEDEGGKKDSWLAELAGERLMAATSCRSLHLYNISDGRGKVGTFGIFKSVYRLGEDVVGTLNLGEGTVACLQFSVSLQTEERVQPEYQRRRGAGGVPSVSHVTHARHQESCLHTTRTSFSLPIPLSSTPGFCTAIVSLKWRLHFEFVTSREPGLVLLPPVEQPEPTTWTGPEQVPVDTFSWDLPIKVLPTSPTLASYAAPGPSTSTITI
UniProt Q8WVD3: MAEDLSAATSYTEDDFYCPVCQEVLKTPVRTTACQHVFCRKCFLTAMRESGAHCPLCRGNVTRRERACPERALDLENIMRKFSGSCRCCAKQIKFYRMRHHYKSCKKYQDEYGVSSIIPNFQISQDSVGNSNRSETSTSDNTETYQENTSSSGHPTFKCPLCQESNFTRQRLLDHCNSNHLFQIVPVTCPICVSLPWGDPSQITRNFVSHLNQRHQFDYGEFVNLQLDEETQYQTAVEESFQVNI
UniProt Q96A37: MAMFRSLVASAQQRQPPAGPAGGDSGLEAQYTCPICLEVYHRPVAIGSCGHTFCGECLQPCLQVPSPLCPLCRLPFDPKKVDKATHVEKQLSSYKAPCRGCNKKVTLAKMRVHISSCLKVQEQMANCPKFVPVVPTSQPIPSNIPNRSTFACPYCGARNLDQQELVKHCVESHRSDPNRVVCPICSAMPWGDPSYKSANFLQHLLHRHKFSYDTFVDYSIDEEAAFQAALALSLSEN
UniProt Q8IYW5, whole entry, looked up: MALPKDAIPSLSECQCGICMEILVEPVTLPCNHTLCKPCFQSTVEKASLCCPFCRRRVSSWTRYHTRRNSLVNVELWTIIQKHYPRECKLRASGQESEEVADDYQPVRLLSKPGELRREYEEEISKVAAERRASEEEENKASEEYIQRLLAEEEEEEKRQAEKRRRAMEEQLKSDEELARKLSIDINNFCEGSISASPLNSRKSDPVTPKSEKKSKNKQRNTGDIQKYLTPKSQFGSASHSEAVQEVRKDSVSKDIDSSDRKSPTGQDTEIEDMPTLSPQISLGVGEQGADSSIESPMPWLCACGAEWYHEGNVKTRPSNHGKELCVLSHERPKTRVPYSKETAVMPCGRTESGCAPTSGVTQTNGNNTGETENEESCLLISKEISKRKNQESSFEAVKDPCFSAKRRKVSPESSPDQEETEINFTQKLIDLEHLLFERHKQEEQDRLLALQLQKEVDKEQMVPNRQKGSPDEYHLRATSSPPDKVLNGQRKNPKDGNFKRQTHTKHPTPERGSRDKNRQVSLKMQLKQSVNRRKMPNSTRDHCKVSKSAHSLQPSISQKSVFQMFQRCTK
UniProt Q9H4X1: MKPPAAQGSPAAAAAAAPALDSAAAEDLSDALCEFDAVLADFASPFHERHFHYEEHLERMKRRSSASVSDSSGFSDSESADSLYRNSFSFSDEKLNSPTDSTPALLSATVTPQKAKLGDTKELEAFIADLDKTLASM

Some of the results follow.

Compound in one assay: CCCS(=O)(=O)Nc1ccc(F)c(C(=O)c2c[nH]c3ncc(-c4ccc(Cl)cc4)cc23)c1F [vemurafenib]
Nature of the assay: log2 fold change, soluble protein after heating vs DMSO (PISA); higher = thermal stabilisation; K562 cells, 10 uM, 30 min; active = over 0.2 and 3.5 SD of the protein, either way, in both replicates (recomputed). The procedure, abridged:
(§1)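 K562 cells at 2×10^6 cells/mL were treated for 30 min with 10 μM compound, and aliquots were heated for 3 min over 48°C-58°C before pooling. Extraction used PBS with 0.5% NP-40 at 4°C, and soluble protein was the supernatant after 21,000xg for 90 min, measured by TMTpro 16plex LC-MS/MS with channel sums equalised. Thermal stability values, relative to control samples and from duplicates, are log2 fold changes.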
In the case of RLIM (UniProt Q9NVW2), the log2 fold change is inactive: -0.066.
On the same count and under the same terms, the value for RGS14 (UniProt O43566) was inactive: -0.268; that for RNF185 (UniProt Q96GF1) was inactive: 0.009.
The same measure, in the same setting: the value for RBM7 (UniProt Q9Y580) was inactive: -0.024; that for RGN (UniProt Q15493) was inactive: -0.072; that for RMDN2 isoform 2 (UniProt Q96LZ7) was inactive: 0.217.
Still for that read-out and setting: the value for RELCH isoform 2 (UniProt Q9P260) was inactive: -0.026; that for RFC1 (UniProt P35251) was inactive: -0.088; that for RECQL5 (UniProt O94762) was inactive: 0.005.
RFWD3 (UniProt Q6PCD5): the log2 fold change was inactive: 0.025.
Still for that read-out and setting: for RMI2 (UniProt Q96E14) the value was inactive: 0.164; for RILPL1 (UniProt Q5EBL4), inactive: 0.071.
On the same count and under the same terms, the value for RCE1 (UniProt Q9Y256) was inactive: -0.135.
Same read-out and setting: for RGP1 (UniProt Q92546) the value was inactive: -0.166; for RNF138 (UniProt Q8WVD3), inactive: 0.086.
In the case of RNF166 (UniProt Q96A37), the log2 fold change was inactive: -0.065.
Same read-out and setting: the value for RIF1 (UniProt Q5UIP0) was inactive: -0.155.

Compound in a further assay: CCCS(=O)(=O)Nc1ccc(F)c(C(=O)c2c[nH]c3ncc(Cl)cc23)c1F
The assay is described as above. The method in brief: as §1
For the target RNF169 (UniProt Q8NCN4), the log2 fold change is inactive: -0.103.
For RHOXF2B (UniProt P0C7M4), the log2 fold change is inactive: 0.084.
The same measure, in the same setting: the value for RLIM (UniProt Q9NVW2) was inactive: -0.183.
Still for that read-out and setting: the value for RBM6 (UniProt P78332) was inactive: 0.031; that for RNF185 (UniProt Q96GF1) was inactive: 0.1; that for RBM7 (UniProt Q9Y580) was inactive: -0.224.
Same read-out and setting: for RGN (UniProt Q15493) the value was inactive: -0.168; for RICTOR isoform 3 (UniProt Q6R327), inactive: 0.018; for RFX3 (UniProt P48380), inactive: 0.169.
RFWD3 (UniProt Q6PCD5): the log2 fold change is inactive: -0.217.
On the same count and under the same terms, for RMI2 (UniProt Q96E14) the value was inactive: 0.044; for RNF168 (UniProt Q8IYW5), inactive: -0.02; for RCE1 (UniProt Q9Y256), inactive: 0.012.
On to RNF220 isoform 3 (UniProt Q5VTB9), for which the log2 fold change was inactive: 0.201.
Same read-out and setting: the value for RC3H2 (UniProt Q9HBD1) was inactive: 0.022; that for RNF138 (UniProt Q8WVD3) was inactive: 0.042.
On the same count and under the same terms, for RNF166 (UniProt Q96A37) the value was inactive: 0.045; for RIF1 (UniProt Q5UIP0), inactive: 0.075.

Compound in a further assay: CCCc1cc(C)[nH]c(=O)c1CNC(=O)c1cc(-c2ccnc(N3CCN(C)CC3)c2)cc2c1cnn2C(C)C
The assay is described as above. The procedure, abridged:
as §1
For RBM6 (UniProt P78332), the log2 fold change is inactive: -0.079.
The same measure, in the same setting: the value for RGS14 (UniProt O43566) was inactive: -0.153; that for RNASEL (UniProt Q05823) was inactive: 0.164; that for RNF185 (UniProt Q96GF1) was inactive: -0.081.
Same read-out and setting: the value for RBM7 (UniProt Q9Y580) was inactive: -0.002; that for RMDN2 isoform 2 (UniProt Q96LZ7) was inactive: -0.196; that for RELCH isoform 2 (UniProt Q9P260) was inactive: -0.114.
Same read-out and setting: for RMI2 (UniProt Q96E14) the value was inactive: 0.083.
For the target RILPL1 (UniProt Q5EBL4), the log2 fold change is inactive: -0.076.
Turning to RNF168 (UniProt Q8IYW5), the log2 fold change is inactive: -0.291.
Still for that read-out and setting: for RCE1 (UniProt Q9Y256) the value was inactive: -0.016; for RGP1 (UniProt Q92546), inactive: -0.195; for RNF138 (UniProt Q8WVD3), inactive: 0.048.
In the case of RNF166 (UniProt Q96A37), the log2 fold change is inactive: 0.005.

Compound in a further assay: CCN(CC)Cc1ccc2cc(COC(=O)Nc3ccc(C(=O)NO)cc3)ccc2c1 [givinostat]
Described as above. The method in brief: as §1
With RIC8B isoform 1 (UniProt Q9NVN3), the log2 fold change is inactive: 0.226.
Consider RGS14 (UniProt O43566), for which the log2 fold change was inactive: 0.173.
On the same count and under the same terms, the value for RNF185 (UniProt Q96GF1) was inactive: -0.013; that for RIT1 isoform 3 (UniProt Q92963) was inactive: -0.084.
On the same count and under the same terms, the value for RCBTB1 (UniProt Q8NDN9) was inactive: -0.197; that for RNF111 isoform 3 (UniProt Q6ZNA4) was inactive: 0.115.
On the same count and under the same terms, for RBM7 (UniProt Q9Y580) the value was inactive: 0.13; for RICTOR isoform 3 (UniProt Q6R327), inactive: -0.057.
As for RELCH isoform 2 (UniProt Q9P260), the log2 fold change is inactive: 0.105.
In the case of RFX3 (UniProt P48380), the log2 fold change is inactive: 0.062.
On the same count and under the same terms, the value for RFWD3 (UniProt Q6PCD5) was inactive: -0.056; that for RILPL1 (UniProt Q5EBL4) was inactive: 0.167; that for RNF168 (UniProt Q8IYW5) was inactive: 0.052.
Still for that read-out and setting: the value for RCE1 (UniProt Q9Y256) was inactive: -0.007.
Same read-out and setting: for RNF220 isoform 3 (UniProt Q5VTB9) the value was inactive: -0.059; for RGP1 (UniProt Q92546), inactive: -0.023.
RNF138 (UniProt Q8WVD3): the log2 fold change is inactive: 0.033.
Still for that read-out and setting: for RNF166 (UniProt Q96A37) the value was inactive: 0.038.
On the same count and under the same terms, for RGCC (UniProt Q9H4X1) the value was inactive: -0.027; for RIF1 (UniProt Q5UIP0), inactive: -0.13.
